# Results reported in the supplement of paper PMC11732987, “Enantioselective OTUD7B fragment discovery through chemoproteomics screening and high-throughput optimisation” (Communications Chemistry, 2025).
# The chains behind the UniProt entries cited, without tags or fusion partners. Where a name states a change or a piece, a line headed by the entry shows the natural chain unless it says otherwise.
# UniProt Q96MF7: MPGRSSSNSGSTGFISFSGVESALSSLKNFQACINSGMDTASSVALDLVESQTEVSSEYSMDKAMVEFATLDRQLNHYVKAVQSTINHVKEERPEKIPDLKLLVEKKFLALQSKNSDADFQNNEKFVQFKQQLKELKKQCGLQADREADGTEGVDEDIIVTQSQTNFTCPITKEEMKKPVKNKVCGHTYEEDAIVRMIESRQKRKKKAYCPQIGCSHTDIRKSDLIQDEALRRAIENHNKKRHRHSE
# The list shows a part of the results. The data scatter; read single values as rough.
# Target: T1, NSMCE2 C169 (UniProt Q96MF7)
# T1 sequence (whole entry): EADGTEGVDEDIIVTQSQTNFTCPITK
# Experiment: log2 mean competition ratio of IA-DTB cysteine labelling (DMSO/compound) (log2 ratio); higher = stronger cysteine engagement by compound
# Conditions: 50 µM; treatment time: 4 h; cell line lysate: HEK293T
# Description: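 IA-DTB competitive cysteine chemoproteomics in HEK293T RIPA lysate. Lysates were treated with compound 29 or 30 at 50 or 200 µM for 4 h, then IA-DTB (500 µM, 1 h), trypsin-digested, NeutrAvidin-enriched and analysed by diaPASEF. Competition ratio = intensity DMSO / intensity compound (n=4 treated, n=64 DMSO); binding: mean log2 CR ≥ 1 and p ≤ 0.05 plus QC filters. Target is the cysteine site.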
row,SMILES,log2 mean competition ratio
1,O=C(CCl)N[C@@H]1CCCc2ccccc21,0.00936
2,O=C(CCl)N[C@H]1CCCc2ccccc21,-0.204

# Same assay, conditions: 200 µM; treatment time: 4 h; cell line lysate: HEK293T
row,SMILES,log2 mean competition ratio
1,O=C(CCl)N[C@@H]1CCCc2ccccc21,-0.443
2,O=C(CCl)N[C@H]1CCCc2ccccc21,-0.632
